The values that follow come from paper PMC11162808.

Protein sequences, listed by entry. Tags and fused reporters are not part of them.
UniProt O14497: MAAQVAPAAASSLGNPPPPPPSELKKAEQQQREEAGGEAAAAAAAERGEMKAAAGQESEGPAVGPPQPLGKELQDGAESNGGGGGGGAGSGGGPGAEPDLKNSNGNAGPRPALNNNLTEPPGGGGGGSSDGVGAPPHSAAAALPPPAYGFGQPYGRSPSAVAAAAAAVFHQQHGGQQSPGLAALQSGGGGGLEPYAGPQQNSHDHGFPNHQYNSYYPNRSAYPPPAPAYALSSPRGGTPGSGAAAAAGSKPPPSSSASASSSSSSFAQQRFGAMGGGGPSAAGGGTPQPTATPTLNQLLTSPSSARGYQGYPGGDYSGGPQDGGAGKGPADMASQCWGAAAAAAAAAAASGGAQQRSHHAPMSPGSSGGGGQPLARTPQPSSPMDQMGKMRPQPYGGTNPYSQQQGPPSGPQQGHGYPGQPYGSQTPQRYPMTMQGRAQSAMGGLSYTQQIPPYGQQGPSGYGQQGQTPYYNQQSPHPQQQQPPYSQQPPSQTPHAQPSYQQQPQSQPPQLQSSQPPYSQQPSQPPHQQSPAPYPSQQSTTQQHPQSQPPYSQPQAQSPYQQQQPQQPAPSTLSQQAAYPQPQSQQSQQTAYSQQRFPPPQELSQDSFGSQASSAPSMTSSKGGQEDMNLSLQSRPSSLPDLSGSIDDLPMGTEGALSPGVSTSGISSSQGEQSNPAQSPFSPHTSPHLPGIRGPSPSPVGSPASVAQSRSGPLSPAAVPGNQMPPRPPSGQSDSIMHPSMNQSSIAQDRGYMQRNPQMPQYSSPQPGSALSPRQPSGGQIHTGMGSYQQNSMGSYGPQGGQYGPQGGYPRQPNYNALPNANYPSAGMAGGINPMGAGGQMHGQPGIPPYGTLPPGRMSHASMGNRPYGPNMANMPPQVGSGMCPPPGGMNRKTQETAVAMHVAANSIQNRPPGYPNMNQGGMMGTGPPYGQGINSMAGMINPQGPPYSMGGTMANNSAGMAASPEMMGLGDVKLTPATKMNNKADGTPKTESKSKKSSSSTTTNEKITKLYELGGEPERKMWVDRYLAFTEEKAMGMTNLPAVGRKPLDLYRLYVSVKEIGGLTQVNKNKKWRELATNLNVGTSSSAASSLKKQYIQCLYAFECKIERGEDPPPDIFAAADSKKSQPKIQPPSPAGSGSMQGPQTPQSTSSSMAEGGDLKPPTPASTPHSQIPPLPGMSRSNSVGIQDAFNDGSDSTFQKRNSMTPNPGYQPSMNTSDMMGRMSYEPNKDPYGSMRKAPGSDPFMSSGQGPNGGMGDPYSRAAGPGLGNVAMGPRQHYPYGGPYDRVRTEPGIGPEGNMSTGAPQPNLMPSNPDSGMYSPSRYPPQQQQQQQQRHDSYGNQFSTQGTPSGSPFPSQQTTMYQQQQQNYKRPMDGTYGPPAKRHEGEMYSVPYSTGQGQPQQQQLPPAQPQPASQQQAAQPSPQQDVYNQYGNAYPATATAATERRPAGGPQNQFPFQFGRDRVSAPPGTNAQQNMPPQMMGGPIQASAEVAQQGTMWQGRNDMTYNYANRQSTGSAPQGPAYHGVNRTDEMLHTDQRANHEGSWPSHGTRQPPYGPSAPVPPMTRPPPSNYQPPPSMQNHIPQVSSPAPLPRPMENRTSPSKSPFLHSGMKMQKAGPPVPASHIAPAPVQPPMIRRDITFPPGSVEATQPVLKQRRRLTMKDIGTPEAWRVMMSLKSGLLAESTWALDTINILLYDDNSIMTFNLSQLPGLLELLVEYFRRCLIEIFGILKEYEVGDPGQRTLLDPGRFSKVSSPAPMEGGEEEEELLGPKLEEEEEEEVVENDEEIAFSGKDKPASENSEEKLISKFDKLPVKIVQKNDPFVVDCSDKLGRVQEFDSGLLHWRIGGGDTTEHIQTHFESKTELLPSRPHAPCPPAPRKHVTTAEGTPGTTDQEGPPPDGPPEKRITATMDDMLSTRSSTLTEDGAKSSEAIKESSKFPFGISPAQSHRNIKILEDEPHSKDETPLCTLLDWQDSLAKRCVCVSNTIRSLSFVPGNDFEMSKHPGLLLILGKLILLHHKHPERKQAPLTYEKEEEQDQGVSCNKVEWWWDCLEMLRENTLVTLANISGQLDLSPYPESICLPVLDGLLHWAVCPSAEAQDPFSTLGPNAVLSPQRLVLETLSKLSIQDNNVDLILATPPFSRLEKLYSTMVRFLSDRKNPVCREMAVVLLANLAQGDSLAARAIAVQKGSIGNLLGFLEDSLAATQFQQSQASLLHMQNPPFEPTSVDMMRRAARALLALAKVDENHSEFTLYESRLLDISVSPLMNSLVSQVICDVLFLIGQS
UniProt Q13547: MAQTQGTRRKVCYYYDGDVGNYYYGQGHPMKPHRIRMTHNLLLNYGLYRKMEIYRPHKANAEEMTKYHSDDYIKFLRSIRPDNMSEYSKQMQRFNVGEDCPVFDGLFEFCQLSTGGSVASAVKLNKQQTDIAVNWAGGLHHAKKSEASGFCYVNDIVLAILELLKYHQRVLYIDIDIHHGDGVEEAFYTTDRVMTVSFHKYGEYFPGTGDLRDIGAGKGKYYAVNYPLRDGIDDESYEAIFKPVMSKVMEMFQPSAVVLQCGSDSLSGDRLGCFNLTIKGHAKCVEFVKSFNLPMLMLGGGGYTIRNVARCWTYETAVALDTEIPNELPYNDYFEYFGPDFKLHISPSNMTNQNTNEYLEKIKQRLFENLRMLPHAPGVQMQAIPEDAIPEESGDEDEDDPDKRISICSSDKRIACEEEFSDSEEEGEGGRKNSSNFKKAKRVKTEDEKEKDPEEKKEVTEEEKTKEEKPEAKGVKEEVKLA

These are yes or no findings as the source states them, for the method shown. In cells and extracts the contact can be indirect. Some results given as binding are weak or reduced against the parent protein; the word gives no strength.

The assay has as its target AT-rich interaction domain protein 1A (ARID1A) (human (endogenous in the paper's human cell lines; the line used for the IP is not stated)) (UniProt O14497). Put plainly: co-IP; IP with anti-ARID1A (anti-IgG as control) from benzonase-treated nuclear lysate, protein A/G magnetic beads, beads boiled in Laemmli buffer and loaded on an SDS gel; cells without and with DNA damage.

Regarding HDAC1 (from UniProt Q13547 1-482), the binding result is listed as “binds”.
